# PubChem BioAssay AID1159584 | Peter MacCallum Cancer Centre | 2016
# Purpose: 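Knock-downs that harm CDH1-null cells more than parental MCF10A cells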 (primary screen)
# System: human MCF10A breast epithelial cells, parental and CDH1-null
# Reagent: siRNA against human genes
# Measurement: 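Cell viability by CellTiter-Glo ATP luminescence, each line scaled to the mean of mock wells across plates, then CDH1-null over parental ratio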
# Direction: CDH1-null / parental viability ratio: higher = CDH1-null cells survive relatively better than parental; CDH1-null viability vs mock: higher = more viable CDH1-null cells; parental viability vs mock: higher = more viable parental cells
# Here is an unselected part of about 18,000 reagents. Not given: the amount of reagent, the time to read-out.
CDH1-null / parental viability ratio,CDH1-null viability vs mock (fraction of mock),parental viability vs mock (fraction of mock),target gene
1.01,1.15,1.14,GNPAT
0.94,0.96,1.02,PRDM5
0.94,0.97,1.03,GFPT2
0.99,0.77,0.78,BCL7C
0.84,0.76,0.9,DPH7
1.04,1.04,1,SLC9A6
0.81,0.44,0.54,STOML1
0.8,0.7,0.88,FCER1G
1.03,0.7,0.68,WDR77
1.03,0.78,0.76,NCOA7
0.96,0.81,0.84,IRX2
1.03,1,0.97,TRUB1
0.98,0.86,0.88,GAL3ST3
1.24,1.04,0.84,TENM1
1.11,0.98,0.88,IFNGR2
1.11,0.52,0.47,NTN3
0.92,0.44,0.48,RHEX
1.13,1.02,0.9,CEP112
1.09,0.96,0.88,NIN
1.67,0.4,0.24,OR4D6
1.08,0.52,0.48,APOBEC3A
1.21,0.92,0.76,SLC35A2
1.38,0.22,0.16,HNRNPC
1,0.78,0.78,DPM3
1.04,0.88,0.85,DCAF12L2
0.82,0.56,0.68,UTP6
0.94,0.34,0.36,NT5C3B
0.7,0.32,0.46,CD19

Already shown: entries from further up.
CDH1-null / parental viability ratio,CDH1-null viability vs mock (fraction of mock),parental viability vs mock (fraction of mock),target gene
0.92,0.44,0.48,RHEX
1.13,1.02,0.9,CEP112
1.09,0.96,0.88,NIN
